# Measurements reported in the supplement of paper PMC8728848.
# The other results are listed elsewhere or left out.
# B1: GroEL (Clostridium difficile), Q18CT5 (protein)
# chain: MAKEIKFSEETRRALEAGVNKLADTVKVTLGPKGRNVILDKKFGSPLITNDGVTIAKEIELEDRFENMGAQLVKEVATKTNDVAGDGTTTATVLAQAIIREGLKNVTAGANPILLRKGIQKAVTVAVEELKNQSRIVETQEAISQVASISAGDEEVGKLIAEAMEIVGKDGVITVEESQTMNTELDAVEGMQFDRGFVSAYMVTDVDKMEAVLNDPYILITDKKISNIQELLPVLEQIVQQGKKLLIIAEDVEGEALSTLVVNKLRGTFDVVAVKAPGFGDRRKEMLQDIAILTGAQVISEELGYDLKEADLSMLGRASSVKVTKESTTIVDGSGDKKAIEDRVTQIKHQVEQTTSDFDREKLMERLAKLAGGVAVVKVGAATEVELKERKLRIEDALNATRAAVEEGIVAGGGTAFVSVIPAIGTLIESLEGEVKLGAQIVKKALEEPLRQIAINAGLEGAVIVQNVVNSEAETGFDALNEKYVNMIEAGIVDPTKVSRSALQNAASIASTFLTTEAAVADLPEKEDAGMPGMGGGMPGMM
# Key:
# Experiment in all cases: glycan array binding signal (z-score within array); higher = stronger binding
# Conditions in all cases: glycan notation: IUPAC condensed, linker removed
# [1] = molecular target: Gal(a1-3)Gal(b1-4)GlcNAc(b1-2)Man(a1-3)[Gal(a1-3)Gal(b1-4)GlcNAc(b1-2)Man(a1-6)]Man(b1-4)GlcNAc(b1-4)GlcNAc
# Method in brief: (§1)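 Negative Z-scores can be read as non-binding. The Z-score is calculated within each array and then averaged across arrays of one protein sequence at different concentrations or buffers and across linkers. Arrays, 3228 in all, were curated from the Consortium for Functional Glycomics database and kept only where the protein sequence was available.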
# [2] = molecular target: Gal(a1-3)Gal(b1-4)GlcNAc(b1-3)GalNAc
# Method in brief: as §1
# [3] = molecular target: Gal(a1-3)Gal(b1-4)GlcNAc(b1-6)GalNAc
# Method in brief: as §1
# [4] = molecular target: Gal(a1-3)Gal(b1-4)[Fuc(a1-3)]GlcNAc
# Method in brief: as §1
# [5] = molecular target: Gal(a1-3)Gal(b1-4)[Fuc(a1-3)]GlcNAc(b1-2)Man(a1-3)[Gal(a1-3)Gal(b1-4)[Fuc(a1-3)]GlcNAc(b1-2)Man(a1-6)]Man(b1-4)GlcNAc(b1-4)GlcNAc
# Method in brief: as §1
# Gal(a1-3)GalNAc = molecular target: Gal(a1-3)GalNAc
# Method in brief: as §1
# [6] = molecular target: Gal(a1-3)[Gal(a1-4)]Gal(b1-4)GlcNAc
# Method in brief: as §1
# [7] = molecular target: Gal(a1-4)Gal(b1-3)GlcNAc(b1-2)Man(a1-3)[Gal(a1-4)Gal(b1-3)GlcNAc(b1-2)Man(a1-6)]Man(b1-4)GlcNAc(b1-4)GlcNAc
# Method in brief: as §1
# Gal(a1-4)Gal(b1-4)Glc = molecular target: Gal(a1-4)Gal(b1-4)Glc
# Method in brief: as §1
# Gal(a1-4)Gal(b1-4)GlcNAc = molecular target: Gal(a1-4)Gal(b1-4)GlcNAc
# Method in brief: as §1
# [8] = molecular target: Gal(a1-4)Gal(b1-4)GlcNAc(b1-2)Man(a1-3)[Gal(a1-4)Gal(b1-4)GlcNAc(b1-2)Man(a1-6)]Man(b1-4)GlcNAc(b1-4)GlcNAc
# Method in brief: as §1
# [9] = molecular target: Gal(a1-4)Gal(b1-4)GlcNAc(b1-3)Gal(b1-4)Glc
# Method in brief: as §1
# Gal(a1-4)GlcNAc = molecular target: Gal(a1-4)GlcNAc
# Method in brief: as §1
# Gal(a1-6)Glc = molecular target: Gal(a1-6)Glc
# Method in brief: as §1
# Gal(b1-2)Gal = molecular target: Gal(b1-2)Gal
# Method in brief: as §1
# Gal(b1-3)Gal = molecular target: Gal(b1-3)Gal
# Method in brief: as §1
# Gal(b1-3)Gal(b1-4)GlcNAc = molecular target: Gal(b1-3)Gal(b1-4)GlcNAc
# Method in brief: as §1
# Gal(b1-3)GalNAc = molecular target: Gal(b1-3)GalNAc
# Method in brief: as §1
# [10] = molecular target: Gal(b1-3)GalNAc(a1-3)[Fuc(a1-2)]Gal(b1-4)Glc
# Method in brief: as §1
# [11] = molecular target: Gal(b1-3)GalNAc(a1-3)[Fuc(a1-2)]Gal(b1-4)GlcNAc
# Method in brief: as §1
# Gal(b1-3)GalNAc(b1-3)Gal = molecular target: Gal(b1-3)GalNAc(b1-3)Gal
# Method in brief: as §1
# [12] = molecular target: Gal(b1-3)GalNAc(b1-3)Gal(a1-4)Gal(b1-4)Glc
# Method in brief: as §1
# [13] = molecular target: Gal(b1-3)GalNAc(b1-4)Gal(b1-4)Glc
# Method in brief: as §1
# [14] = molecular target: Gal(b1-3)GalNAc(b1-4)[Neu5Ac(a2-3)]Gal(b1-4)Glc
# Method in brief: as §1
# Gal(b1-3)GlcNAc = molecular target: Gal(b1-3)GlcNAc
# Method in brief: as §1
# [15] = molecular target: Gal(b1-3)GlcNAc(a1-3)Gal(b1-4)GlcNAc
# Method in brief: as §1
# [16] = molecular target: Gal(b1-3)GlcNAc(a1-6)Gal(b1-4)GlcNAc
# Method in brief: as §1
# Gal(b1-3)GlcNAc(b1-2)Man = molecular target: Gal(b1-3)GlcNAc(b1-2)Man
# Method in brief: as §1
# [17] = molecular target: Gal(b1-3)GlcNAc(b1-2)Man(a1-3)[Gal(b1-3)GlcNAc(b1-2)Man(a1-6)]Man(b1-4)GlcNAc(b1-4)GlcNAc
# Method in brief: as §1
# [18] = molecular target: Gal(b1-3)GlcNAc(b1-2)Man(a1-3)[Gal(b1-3)GlcNAc(b1-2)Man(a1-6)]Man(b1-4)GlcNAc(b1-4)[Fuc(a1-6)]GlcNAc
# Method in brief: as §1
binder,measurement,setting,value
B1,glycan array binding signal (z-score),[1],1.12
same,glycan array binding signal (z-score),[2],-1.93
same,glycan array binding signal (z-score),[3],-1.27
same,glycan array binding signal (z-score),[4],0.339
same,glycan array binding signal (z-score),[5],-0.924
same,glycan array binding signal (z-score),Gal(a1-3)GalNAc,0.054
same,glycan array binding signal (z-score),[6],-0.299
same,glycan array binding signal (z-score),[7],-1.24
same,glycan array binding signal (z-score),Gal(a1-4)Gal(b1-4)Glc,2.58
same,glycan array binding signal (z-score),Gal(a1-4)Gal(b1-4)GlcNAc,-0.452
same,glycan array binding signal (z-score),[8],0.083
same,glycan array binding signal (z-score),[9],-0.087
same,glycan array binding signal (z-score),Gal(a1-4)GlcNAc,-0.307
same,glycan array binding signal (z-score),Gal(a1-6)Glc,-1.32
same,glycan array binding signal (z-score),Gal(b1-2)Gal,-0.964
same,glycan array binding signal (z-score),Gal(b1-3)Gal,1.32
same,glycan array binding signal (z-score),Gal(b1-3)Gal(b1-4)GlcNAc,-0.843
same,glycan array binding signal (z-score),Gal(b1-3)GalNAc,-0.683
same,glycan array binding signal (z-score),[10],3.31
same,glycan array binding signal (z-score),[11],-0.773
same,glycan array binding signal (z-score),Gal(b1-3)GalNAc(b1-3)Gal,0.853
same,glycan array binding signal (z-score),[12],0.316
same,glycan array binding signal (z-score),[13],1.01
same,glycan array binding signal (z-score),[14],-0.485
same,glycan array binding signal (z-score),Gal(b1-3)GlcNAc,-0.195
same,glycan array binding signal (z-score),[15],-0.935
same,glycan array binding signal (z-score),[16],-1.43
same,glycan array binding signal (z-score),Gal(b1-3)GlcNAc(b1-2)Man,-0.397
same,glycan array binding signal (z-score),[17],-0.447
same,glycan array binding signal (z-score),[18],-0.13
